{"source": "paper PMC10151459", "key": {"[1]": {"target": "T1, NHL3-mCherry (NDR1/HIN1-LIKE protein 3 tagged with mCherry) (Arabidopsis thaliana) (UniProt Q9FNH6)", "T1 sequence": "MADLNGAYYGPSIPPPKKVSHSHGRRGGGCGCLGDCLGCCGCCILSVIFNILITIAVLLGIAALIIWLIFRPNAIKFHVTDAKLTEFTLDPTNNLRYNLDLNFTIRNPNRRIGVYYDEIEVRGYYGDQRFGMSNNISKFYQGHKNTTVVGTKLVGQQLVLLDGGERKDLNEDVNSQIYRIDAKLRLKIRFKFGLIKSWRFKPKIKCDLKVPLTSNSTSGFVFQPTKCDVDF", "test": "co-IP; mCherry-tagged proteins immunoprecipitated from protein extracts of N. benthamiana leaves transiently coexpressing PDLP5-eGFP; blots with anti-GFP and anti-RFP"}, "[2]": {"target": "T2, LTI6b (LOW TEMPERATURE INDUCED PROTEIN 6b)-mCherry (UniProt Q9ZNS6)", "T2 sequence": "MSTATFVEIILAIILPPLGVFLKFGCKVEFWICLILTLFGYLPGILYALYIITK", "test": "co-IP; mCherry-tagged proteins immunoprecipitated from protein extracts of N. benthamiana leaves transiently coexpressing PDLP5-eGFP; blots with anti-GFP and anti-RFP"}, "[3]": {"target": "T1, NHL3-mCherry (NDR1/HIN1-LIKE protein 3 tagged with mCherry) (Arabidopsis thaliana)", "test": "FRET or BRET; FRET-FLIM in N. benthamiana leaves transiently expressing the constructs; donor PDLP5-eGFP, acceptors mCherry fusions; GFP lifetime measured at plasmodesmal regions of interest"}, "[4]": {"target": "T2, LTI6b (LOW TEMPERATURE INDUCED PROTEIN 6b)-mCherry", "test": "FRET or BRET; FRET-FLIM in N. benthamiana leaves transiently expressing the constructs; donor PDLP5-eGFP, acceptors mCherry fusions; GFP lifetime measured at plasmodesmal regions of interest"}}, "note": "No constants are given. Whether binding was seen depends on the method and setting. Binding seen in cells or lysates may run through a third protein. Some binding calls cover weakened binding; strength is not graded here. Sequences can lack the tags named with a protein."}
{"binder": "PDLP5-eGFP (PLASMODESMATA-LOCATED PROTEIN 5 fused to eGFP) (protein, UniProt Q8GUJ2 26-299) SPTDNYIYAVCSPAKFSPSSGYETNLNSLLSSFVTSTAQTRYANFTVPTGKPEPTVTVYGIYQCRGDLDPTACSTCVSSAVAQVGALCSNSYSGFLQMENCLIRYDNKSFLGVQDKTLILNKCGQPMEFNDQDALTKASDVIGSLGTGDGSYRTGGNGNVQGVAQCSGDLSTSQCQDCLSDAIGRLKSDCGMAQGGYVYLSKCYARFSVGGSHARQTPGPNFGHEGEKGNKDDNGVGKTLAIIIGIVTLIILLVVFLAFVGKCCRKLQDEKWCK", "values": [{"measurement": "binding", "setting": "[1]", "value": "binds"}, {"measurement": "binding", "setting": "[2]", "value": "no binding"}, {"measurement": "binding", "setting": "[3]", "value": "binds"}, {"measurement": "binding", "setting": "[4]", "value": "no binding"}]}
